Experimental data published in article PMC2075366.

Chains of the proteins cited; added tags and fusions are not shown.
UniProt Q6R327: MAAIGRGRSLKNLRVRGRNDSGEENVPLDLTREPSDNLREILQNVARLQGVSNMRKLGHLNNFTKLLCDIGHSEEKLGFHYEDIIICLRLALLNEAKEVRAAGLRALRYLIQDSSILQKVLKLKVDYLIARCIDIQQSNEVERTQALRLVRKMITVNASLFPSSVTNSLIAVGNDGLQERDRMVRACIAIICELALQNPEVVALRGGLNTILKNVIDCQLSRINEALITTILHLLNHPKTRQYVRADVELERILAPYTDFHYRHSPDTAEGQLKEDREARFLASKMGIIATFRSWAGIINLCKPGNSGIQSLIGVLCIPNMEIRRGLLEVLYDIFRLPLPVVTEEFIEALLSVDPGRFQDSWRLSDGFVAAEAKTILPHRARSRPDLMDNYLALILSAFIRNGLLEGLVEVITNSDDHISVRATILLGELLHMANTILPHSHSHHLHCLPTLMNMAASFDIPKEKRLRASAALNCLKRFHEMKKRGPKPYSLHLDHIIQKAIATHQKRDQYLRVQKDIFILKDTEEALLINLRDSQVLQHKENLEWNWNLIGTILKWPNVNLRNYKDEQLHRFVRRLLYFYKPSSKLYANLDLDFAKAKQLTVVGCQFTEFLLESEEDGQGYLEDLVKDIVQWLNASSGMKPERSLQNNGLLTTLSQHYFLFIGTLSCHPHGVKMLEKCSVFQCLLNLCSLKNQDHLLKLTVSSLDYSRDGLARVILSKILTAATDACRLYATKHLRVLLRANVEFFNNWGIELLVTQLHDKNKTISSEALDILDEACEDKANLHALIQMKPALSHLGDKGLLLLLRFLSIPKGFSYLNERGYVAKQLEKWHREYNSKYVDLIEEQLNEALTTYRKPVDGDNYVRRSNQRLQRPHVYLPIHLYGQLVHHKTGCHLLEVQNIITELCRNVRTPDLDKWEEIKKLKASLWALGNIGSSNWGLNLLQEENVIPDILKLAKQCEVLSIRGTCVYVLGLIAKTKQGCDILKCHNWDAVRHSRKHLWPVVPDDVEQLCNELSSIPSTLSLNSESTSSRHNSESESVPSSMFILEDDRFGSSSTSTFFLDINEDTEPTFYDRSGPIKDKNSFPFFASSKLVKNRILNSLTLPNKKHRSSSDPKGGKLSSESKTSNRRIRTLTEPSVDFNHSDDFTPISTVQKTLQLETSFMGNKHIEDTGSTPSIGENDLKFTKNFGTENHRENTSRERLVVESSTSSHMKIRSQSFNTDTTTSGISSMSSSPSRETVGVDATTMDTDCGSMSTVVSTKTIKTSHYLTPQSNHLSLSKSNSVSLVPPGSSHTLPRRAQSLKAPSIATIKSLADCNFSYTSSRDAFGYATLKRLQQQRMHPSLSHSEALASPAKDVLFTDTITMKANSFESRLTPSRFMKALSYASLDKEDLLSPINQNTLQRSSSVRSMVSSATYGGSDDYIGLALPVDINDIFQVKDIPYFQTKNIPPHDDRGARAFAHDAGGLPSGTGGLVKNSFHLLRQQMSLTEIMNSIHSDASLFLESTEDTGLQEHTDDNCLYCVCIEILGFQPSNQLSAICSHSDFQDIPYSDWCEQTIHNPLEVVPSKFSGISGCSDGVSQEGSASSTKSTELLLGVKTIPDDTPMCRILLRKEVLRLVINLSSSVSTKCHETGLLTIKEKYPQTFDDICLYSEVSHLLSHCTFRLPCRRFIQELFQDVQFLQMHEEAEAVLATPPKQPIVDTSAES
UniProt Q6MZQ0: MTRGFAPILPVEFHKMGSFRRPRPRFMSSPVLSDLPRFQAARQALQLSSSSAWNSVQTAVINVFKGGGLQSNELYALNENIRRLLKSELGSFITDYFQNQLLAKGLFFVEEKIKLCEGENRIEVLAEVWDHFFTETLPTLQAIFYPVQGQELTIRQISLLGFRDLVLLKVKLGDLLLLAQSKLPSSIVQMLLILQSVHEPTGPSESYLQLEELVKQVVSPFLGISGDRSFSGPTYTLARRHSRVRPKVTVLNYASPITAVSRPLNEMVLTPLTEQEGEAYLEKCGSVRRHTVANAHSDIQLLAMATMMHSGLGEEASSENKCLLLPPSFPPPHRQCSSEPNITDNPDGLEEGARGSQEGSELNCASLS

Target: Rictor (human (endogenous in HeLa and HEK293)) (UniProt Q6R327)
Experiment: affinity purification with mass spectrometry; large scale IPs of endogenous mTOR, Rictor or Raptor from HeLa cells with antibodies on Protein G Dynabeads, against mock IPs; digestion with trypsin on the beads, 2D LC-MS/MS

“PRR5-Like protein (PRR5L) (from UniProt Q6MZQ0 1-368)” was tested, and the binding was “binds”.
In the case of “Proline-rich Akt substrate (PRAS40) (from UniProt Q96B36 1-256)”, the binding was “no binding”.

No constants are given. Whether binding was seen depends on the method and setting. Binding seen in cells or lysates may run through a third protein. Here binding means that the protein was enriched with, or labelled near, the bait; the list need not be complete. A no says only that the protein was not detected with the bait.
